Results published in publication PMC8813937.
These are yes or no findings as the source states them, for the method shown. Binding seen in cells or lysates may run through a third protein. Binding calls can cover weak binding; strength is not graded here.

Protein sequences, listed by entry. Tags and fused reporters are not part of them. Lines headed by an entry give the natural chain unless they say otherwise; changes in a name come on top.
UniProt Q00987: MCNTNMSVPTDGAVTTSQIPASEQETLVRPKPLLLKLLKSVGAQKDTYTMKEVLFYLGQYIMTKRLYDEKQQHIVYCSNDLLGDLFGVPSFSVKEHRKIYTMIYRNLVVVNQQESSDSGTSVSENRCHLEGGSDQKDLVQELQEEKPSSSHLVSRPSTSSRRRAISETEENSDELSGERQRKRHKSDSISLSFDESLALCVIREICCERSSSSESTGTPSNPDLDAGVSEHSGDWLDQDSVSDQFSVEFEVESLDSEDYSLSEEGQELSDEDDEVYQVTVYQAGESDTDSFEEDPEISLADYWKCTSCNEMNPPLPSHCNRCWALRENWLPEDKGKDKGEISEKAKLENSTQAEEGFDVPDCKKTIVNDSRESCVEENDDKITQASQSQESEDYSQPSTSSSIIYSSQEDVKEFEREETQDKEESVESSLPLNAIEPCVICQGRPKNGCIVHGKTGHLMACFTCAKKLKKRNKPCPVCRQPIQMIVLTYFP
UniProt P49821: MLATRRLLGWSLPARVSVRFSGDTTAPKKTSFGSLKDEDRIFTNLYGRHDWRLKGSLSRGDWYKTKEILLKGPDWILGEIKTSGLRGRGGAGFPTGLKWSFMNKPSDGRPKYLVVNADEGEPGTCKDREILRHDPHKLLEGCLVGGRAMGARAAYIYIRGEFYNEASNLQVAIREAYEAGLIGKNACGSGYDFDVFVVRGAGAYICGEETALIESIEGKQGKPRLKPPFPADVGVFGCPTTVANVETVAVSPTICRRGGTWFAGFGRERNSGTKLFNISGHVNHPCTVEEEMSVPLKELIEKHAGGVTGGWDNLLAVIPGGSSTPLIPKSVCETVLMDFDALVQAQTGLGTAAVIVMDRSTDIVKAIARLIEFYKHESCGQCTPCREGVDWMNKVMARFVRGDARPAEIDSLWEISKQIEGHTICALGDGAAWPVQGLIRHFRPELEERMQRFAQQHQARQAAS

What was measured:
[1] = target: mouse double minute 2 (MDM2), exogenous, full length (human) (UniProt Q00987); assay: co-IP; HEK293T cells co-transfected with both partners (exogenous, tagged or untagged); blots; protocol by reference 43
[2] = target: mouse double minute 2 (MDM2), exogenous, full length (human) (UniProt Q00987); assay: co-IP; HEK293T cells in which a third protein is co-expressed as blocker (Myc-CYTL1 with 20 μM MG132 for 6 h; HA-CYTL1 or HA-ΔCYTL1; Flag-NDUFV1) against a control vector

For “Flag-tagged NDUFV1, full length (from UniProt P49821)”, the binding [1] was “binds” and the binding [2] was “binds”.
